Experimental findings from article PMC7862700 are described below.

The entries are a selection whose mix differs from that of the whole data set. For part of these data: At the low end of the ranking the order means little. This is one part of the list. For part of these data: Construct or isoform of the protein are uncertain.

Test in all cases: DAPPL (digital affinity profiling via proximity ligation, sequencing)
Holding throughout (settings): 10 mM Tris-HCl pH 7.5, 50 mM NaCl, 1 mM DTT, 4% glycerol, room temperature, 30 min; GST-TFs on glutathione beads, 16-mer random dsDNA library, 0.1% …; high values mean tight binding; double strand, one strand shown; scale: fold enrichment (6-mer frequency, TF over GST control)

The target of one experiment is T1, GABPA (UniProt Q06546).
T1 sequence: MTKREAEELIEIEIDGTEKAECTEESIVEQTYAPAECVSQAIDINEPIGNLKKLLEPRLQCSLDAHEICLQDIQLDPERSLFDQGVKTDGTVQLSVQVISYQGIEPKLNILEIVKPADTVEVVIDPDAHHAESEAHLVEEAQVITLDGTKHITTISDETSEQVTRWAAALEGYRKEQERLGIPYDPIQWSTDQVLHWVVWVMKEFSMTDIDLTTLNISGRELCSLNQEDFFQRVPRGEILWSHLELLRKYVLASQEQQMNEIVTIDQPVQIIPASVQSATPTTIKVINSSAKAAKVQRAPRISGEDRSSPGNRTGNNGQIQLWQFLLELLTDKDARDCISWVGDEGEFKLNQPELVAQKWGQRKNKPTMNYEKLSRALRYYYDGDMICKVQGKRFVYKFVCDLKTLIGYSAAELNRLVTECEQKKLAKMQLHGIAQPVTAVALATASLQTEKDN

The target of the next experiment is T2, ETS1 (UniProt P14921).
T2 sequence: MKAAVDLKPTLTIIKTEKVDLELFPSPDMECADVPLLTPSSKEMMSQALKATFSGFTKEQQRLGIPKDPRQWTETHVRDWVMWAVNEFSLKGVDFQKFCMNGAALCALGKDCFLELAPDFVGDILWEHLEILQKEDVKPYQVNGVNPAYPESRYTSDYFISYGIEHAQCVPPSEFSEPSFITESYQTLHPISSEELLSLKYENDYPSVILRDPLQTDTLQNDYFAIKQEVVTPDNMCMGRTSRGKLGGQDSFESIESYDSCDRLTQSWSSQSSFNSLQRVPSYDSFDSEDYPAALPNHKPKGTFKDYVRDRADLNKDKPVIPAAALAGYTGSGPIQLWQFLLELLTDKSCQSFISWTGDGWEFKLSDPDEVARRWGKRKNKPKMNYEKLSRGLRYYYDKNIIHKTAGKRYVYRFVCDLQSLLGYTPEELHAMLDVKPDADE

For a further experiment, the target named is T3, SPDEF (UniProt O95238).
T3 sequence: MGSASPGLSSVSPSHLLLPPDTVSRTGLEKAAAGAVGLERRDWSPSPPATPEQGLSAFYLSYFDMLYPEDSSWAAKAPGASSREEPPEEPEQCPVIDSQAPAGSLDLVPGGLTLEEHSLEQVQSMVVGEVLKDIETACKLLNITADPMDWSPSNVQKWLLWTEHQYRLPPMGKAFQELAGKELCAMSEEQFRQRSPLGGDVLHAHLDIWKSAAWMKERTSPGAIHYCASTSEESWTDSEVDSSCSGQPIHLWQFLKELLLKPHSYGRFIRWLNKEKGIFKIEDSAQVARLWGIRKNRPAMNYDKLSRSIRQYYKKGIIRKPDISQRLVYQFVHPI

For TGTCCA, the binding signal in the experiment with GABPA came out at 1.1; with ETS1, 1.13; in the experiment with SPDEF, 1.13.

For ATGCTT, the binding signal in the experiment with GABPA came to 1.26; with ETS1, 1.29; in the experiment with SPDEF, 1.32.

In the case of CCCATT, the values for the binding signal in the experiment with GABPA, with ETS1 and with SPDEF were 1.46, 1.3 and 1.19, respectively.

On to GGAACA, for which the binding signal was 0.983 in the experiment with GABPA, 1.08 with ETS1 and 1.15 with SPDEF.

As to ATGTCT, the binding signal in the experiment with GABPA was 1.36; with ETS1, 1.24; with SPDEF it was 1.26.

For CCTCTA, the binding signal in the experiment with GABPA amounted to 1.39; with ETS1, 1.52; in the experiment with SPDEF, 1.32.

As for TTTGCG, the binding signal was determined as 1.26 with GABPA, 1.22 with ETS1 and 1.2 with SPDEF.

With ACTAAC, the values for the binding signal with GABPA, in the experiment with ETS1 and in the experiment with SPDEF were 1.26, 1.26 and 1.2, respectively.
